# These are yes or no findings as the source states them, for the method shown. Some binding calls cover weakened binding; strength is not graded here.
# By UniProt entry, the sequences of proteins in these tests, tags left out. Residues count along the entry.
# UniProt P14778, residues 18-332: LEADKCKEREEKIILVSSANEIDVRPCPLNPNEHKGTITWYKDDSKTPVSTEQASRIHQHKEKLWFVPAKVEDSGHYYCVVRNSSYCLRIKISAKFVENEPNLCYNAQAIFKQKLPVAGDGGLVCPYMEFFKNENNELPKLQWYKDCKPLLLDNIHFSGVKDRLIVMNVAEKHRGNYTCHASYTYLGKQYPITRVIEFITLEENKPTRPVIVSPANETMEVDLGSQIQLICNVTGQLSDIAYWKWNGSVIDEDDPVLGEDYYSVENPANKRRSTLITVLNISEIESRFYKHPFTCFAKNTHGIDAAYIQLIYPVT
# UniProt P18510, residues 26-177: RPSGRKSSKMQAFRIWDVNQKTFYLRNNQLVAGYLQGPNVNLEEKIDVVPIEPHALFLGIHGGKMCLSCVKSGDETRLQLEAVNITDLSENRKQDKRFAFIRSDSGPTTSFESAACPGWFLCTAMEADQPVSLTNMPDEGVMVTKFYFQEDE
# Biological target: hIL-1RI protein (human) (UniProt P14778)
# Test: SPR (Biacore), CM5 chip, fusion protein immobilised by amine coupling, receptor injected as analyte (labelled IL1R1-Fc on the sheet)
substance,measurement,value
hIL-1RA fused with Fc from IgG1 (from UniProt P18510 26-177) (Fc fusion),binding,binds

# Reference: patent publication US20130217864A1
